Laboratory results: PubChem BioAssay AID1224830 (NIAID, 2016)
This is one part, drawn at random, of about 18,000 reagents tested. About 2,900 of all reagents (16%) were called active. 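Calls are made per well; low scores hint the gene aids the LPS response, high scores that it dampens it.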 Unmarked entries are inactive. Repeated entries: four replicate wells of each siRNA pool.

Assay: 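Genes whose knock-down alters the TNF-alpha reporter response to LPS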 (primary screen)
Cell system: human THP-1 monocytic leukaemia cells, TNF dual-luciferase reporter clone, PMA-differentiated to macrophage-like cells
Reagents: siRNA pool against human genes, 50 nM
Duration: LPS for 4 h, given about 3 days after siRNA transfection
Treatment: bacterial LPS (TLR4 ligand), 10 ng/ml
Read-out: 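TNF firefly reporter luminescence divided by renilla, normalised to the plate median, then turned into a robust z-score for each replicate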
Reading the numbers: TNF reporter robust z-score: higher = stronger TNF reporter response to LPS
Call rule: 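Each well counts as active if its z-score is over 2.8 or under -1.5; controls are left without a call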

GNB3 (G protein subunit beta 3) → TNF reporter robust z-score: -0.41
GNB3 (G protein subunit beta 3) → TNF reporter robust z-score: -0.02
GNB3 (G protein subunit beta 3) → TNF reporter robust z-score: -0.3
GNB3 (G protein subunit beta 3) → TNF reporter robust z-score: 0.07
FLYWCH2 (FLYWCH family member 2) → TNF reporter robust z-score: -0.08
FLYWCH2 (FLYWCH family member 2) → TNF reporter robust z-score: -0.36
FLYWCH2 (FLYWCH family member 2) → TNF reporter robust z-score: -1.11
FLYWCH2 (FLYWCH family member 2) → TNF reporter robust z-score: -1.26

Additional results:
TM7SF2 (transmembrane 7 superfamily member 2) → TNF reporter robust z-score: -0.64
TM7SF2 (transmembrane 7 superfamily member 2) → TNF reporter robust z-score: -0.07
TM7SF2 (transmembrane 7 superfamily member 2) → TNF reporter robust z-score: -0.44
TM7SF2 (transmembrane 7 superfamily member 2) → TNF reporter robust z-score: 0.58
LAMA4 (laminin subunit alpha 4) → TNF reporter robust z-score: -1.08
LAMA4 (laminin subunit alpha 4) → TNF reporter robust z-score: -0.68
LAMA4 (laminin subunit alpha 4) → TNF reporter robust z-score: -1.07
LAMA4 (laminin subunit alpha 4) → TNF reporter robust z-score: -0.83
SMIM29 (small integral membrane protein 29) → TNF reporter robust z-score: 0.14
SMIM29 (small integral membrane protein 29) → TNF reporter robust z-score: 0.41
SMIM29 (small integral membrane protein 29) → TNF reporter robust z-score: 0.13
SMIM29 (small integral membrane protein 29) → TNF reporter robust z-score: 0.56
